Reference: patent EP0311632B1, “SURFACE ACTIVE LACTAMS” (priority 1986, dated 1988)
The name of at least one read-out is uncertain.

Experiment: Titration of 10% dispersions with HCl to a clear solution (protonation)
Format: physicochemical
Details: 20.0 grams of pyrrolidone (10% dispersion) titrated to a clear solution
Text: Ten percent dispersions of the C₈ and C₁₀ pyrrolidones were titrated to a clear solution using HCl.
To obtain a rough figure for the protonation equilibrium constant, the equilibrium [octyl pyrrolidone] was taken at 5 x 10⁻³m.

SMILES: CCCCCCCCCCN1CCCC1=O [N-decyl-2-pyrrolidone]
- HCl 36.7% required for solubilization: 9.7 mL

SMILES: CCCCCCCCN1CCCC1=O [N-octyl-2-pyrrolidone]
- HCl 36.7% required for solubilization: 5.2 mL
